In paper PMC7588057:
No constants are given. Whether binding was seen depends on the method and setting. In cells and extracts the contact can be indirect. Some results given as binding are weak or reduced against the parent protein; the word gives no strength.

The chains behind the UniProt entries cited, without tags or fusion partners. Where a name states a change or a piece, a line headed by the entry shows the natural chain unless it says otherwise.
UniProt Q0PF16: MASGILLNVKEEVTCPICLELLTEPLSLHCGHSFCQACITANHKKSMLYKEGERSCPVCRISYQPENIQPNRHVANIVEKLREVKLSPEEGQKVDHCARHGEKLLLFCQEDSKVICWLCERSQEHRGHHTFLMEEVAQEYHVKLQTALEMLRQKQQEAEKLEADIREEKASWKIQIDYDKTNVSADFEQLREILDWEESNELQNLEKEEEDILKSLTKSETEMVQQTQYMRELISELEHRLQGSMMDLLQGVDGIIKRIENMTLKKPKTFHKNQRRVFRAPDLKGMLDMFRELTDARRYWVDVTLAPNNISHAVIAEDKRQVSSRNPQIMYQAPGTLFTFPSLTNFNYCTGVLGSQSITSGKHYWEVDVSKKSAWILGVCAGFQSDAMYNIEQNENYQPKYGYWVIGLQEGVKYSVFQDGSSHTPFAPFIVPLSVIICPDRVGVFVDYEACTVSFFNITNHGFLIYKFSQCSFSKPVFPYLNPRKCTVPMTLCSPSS
UniProt Q14457: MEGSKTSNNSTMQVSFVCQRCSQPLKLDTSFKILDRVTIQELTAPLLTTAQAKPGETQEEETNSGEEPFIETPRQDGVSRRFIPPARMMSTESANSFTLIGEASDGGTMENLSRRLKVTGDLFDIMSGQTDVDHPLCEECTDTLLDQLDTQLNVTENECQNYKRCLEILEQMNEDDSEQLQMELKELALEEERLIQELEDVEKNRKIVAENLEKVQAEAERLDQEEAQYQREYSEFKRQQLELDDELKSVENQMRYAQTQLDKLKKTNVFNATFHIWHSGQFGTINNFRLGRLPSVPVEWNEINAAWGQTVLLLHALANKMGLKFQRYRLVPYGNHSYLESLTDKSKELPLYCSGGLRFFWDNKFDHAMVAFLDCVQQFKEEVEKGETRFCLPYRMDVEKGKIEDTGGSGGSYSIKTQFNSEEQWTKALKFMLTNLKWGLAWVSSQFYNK

Legend:
[1] = biological target: GFP-TRIM5 (tripartite motif-containing protein 5, isoform α), wild type (UniProt Q0PF16); assay: co-IP; lysates of transiently transfected HEK293T cells, IP lysis buffer with 1% NP-40; immunoprecipitation with anti-GFP (for the TRIM5-TAK1 pair also with anti-FLAG), immunoblot; TRIM5-TAK1 also in ULK1, BECN1 and ATG7 knockout HEK293T cells
[2] = biological target: GFP-TRIM5 ΔLIR1/2 mutant (F187A, L190A, W196A, E197A) (UniProt Q0PF16); assay: as above

For FLAG-BECN1 (from UniProt Q14457 1-450), the binding [1] was “binds” and the binding [2] was “binds”.
